Measurements as given in PubChem BioAssay AID1347075 (National Center for Advancing Translational Sciences (NCATS), 2019).
Out of some 400,000 compounds screened, about 5,500 (1.4%) were called active. Inconclusive means that the source gave no clear call. Such entries were picked first, then a sample of the others. Calls follow the shape of the dose curve; as a rule, active = well fitted cell-killing curve with a large enough effect; inconclusive = small, poorly fitted or top-dose-only effect, or effect the other way; inactive = flat fitted curve, though single readings scatter. Potencies beside an inconclusive call are fits to weak or partial responses and may not hold up.

Experiment: qHTS assay for MDR1-selective chemotherapeutics: Primary screen using the parental adenocarcinoma cell KB-3-1; also: nearly all actives have a fitted effect of over 60% in size
Settings: KB-3-1 viability, CellTiter-Glo ATP luminescence, 72 h; activity change, negative = cytotoxic: at 46.1 µM (top of the series)
Method in brief: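 Using CellTiter-Glo luminescence, growth of non-resistant KB-3-1 adenocarcinoma cells is assessed 72 h after pin-tool compound addition at 37 °C. Normalized responses across the concentration series yield fitted curves.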
% is scaled to controls: 0 for no effect and ±100 for the full control effect; potency is read from the fitted curve at half-maximal effect.

SMILES | Potency | activity change, negative = cytotoxic
CCN(CC)S(=O)(=O)c1cnccc1N1CCN(c2cccc(Cl)c2)CC1 | active: 10.3 µM | 
CNc1c(NS(=O)(=O)c2cc(NC(C)=O)ccc2C)c(=O)oc2ccccc12 | inconclusive: 29.1 µM [rising, single point] | 
O=S(=O)(O)c1cc(O)c(N=Nc2ccc(O)cc2O)c2ccccc12 | inconclusive: 18.4 µM [cytotoxic, partial curve] | 
O=c1cc(C(Cl)(Cl)Cl)oc2c1ccc1ccccc12 | inconclusive: 23.1 µM [cytotoxic, single point] | 
Cc1ccc(-c2csc(NC(=O)C[n+]3cc(-c4ccccc4)n4c3CCC4)n2)cc1 | inconclusive: 14.6 µM [cytotoxic, partial curve, poor fit] | 
CCOC(=O)[C@]12CCC=C1N(Cc1cccc3ccccc13)C(=O)[C@H](CC(=O)NCCCCc1ccccc1)C2 | inconclusive: 29.1 µM [cytotoxic, single point] | 
Fc1ccc(-c2cnn3c(-c4cccs4)ccnc23)cc1 | inconclusive: 11.6 µM [cytotoxic, partial curve] | 
COC(=O)[C@]12CCCCC=C1N(CCc1ccc(OC)c(OC)c1)C(=O)[C@H](CC(=O)NCc1cccc3ccccc13)C2 | inactive | 
O[C@@H]1CN(CC2CCCCC2)[C@@H](c2ccc(Cl)cc2)C[C@H]1n1cc(C2CC2)nn1 | inconclusive: 29.1 µM [cytotoxic, single point] | 
COc1c(Br)cc(Br)cc1/C=N/n1c(C)nnc1C | inconclusive: 29.1 µM [cytotoxic, single point] | 
Cc1[nH][nH]c(=O)c1C(c1c(C)[nH][nH]c1=O)c1cn(Cc2ccccc2Cl)c2ccccc12 | active: 7.31 µM | 
CCOC(=O)c1cc(C#N)c(Oc2ccccc2OC)nc1-c1ccccc1 | inconclusive: 23.1 µM [cytotoxic, partial curve, poor fit] | 
CN(C)S(=O)(=O)Oc1cccc(C(=O)Nc2ccc(Cl)cc2)c1 | active: 9.2 µM | 
COc1ccc(CNC(=O)C(=O)NCC(c2cccnc2)N2CCN(c3ccccc3F)CC2)cc1 (centres undefined) | inconclusive: 3.66 µM [cytotoxic, partial curve] | 
Cc1ccccc1C1=NC(C(F)(F)F)(C(F)(F)F)c2c(n(C)c(=O)n(C)c2=O)N1 | inconclusive: 25.9 µM [cytotoxic, partial curve, poor fit] | 
Clc1ccc(NN(Cc2ccncc2)c2ccc(Cl)cc2)cc1 | inconclusive: 32.6 µM [cytotoxic, single point] | 
COc1ccc(/C=N/NC(=O)c2nnn(-c3nonc3N)c2-c2cccc(OC)c2)cc1 | inconclusive: 23.1 µM [rising, partial curve, poor fit] | 
CCC1=C(OC(=O)N(CC)CC)N2C(=O)OC(=NCCc3c[nH]c4ccccc34)[C@]2(Cc2ccccc2)[C@H]2C1=CC[C@H]1C(=O)N(CC(=O)OC)C(=O)[C@H]12 | inconclusive: 29.1 µM [cytotoxic, single point] | 
O=C(CCS(=O)(=O)c1ccccc1)N(CCCN1CCOCC1)c1nc2ccccc2s1 | inconclusive: 20.6 µM [cytotoxic, single point] | 
O=C(NCCN1CCC(n2c(=O)[nH]c3ccccc32)CC1)c1ccc(F)cc1 |  | inconclusive: -3.15%

SMILES | Potency | activity change, negative = cytotoxic
Cc1cc(C)n(-c2nc(NCCCN(C)C)c3c4c(sc3n2)CCCC4)n1 | inconclusive: 29.1 µM [cytotoxic, single point] | 
COc1ccccc1NC1=C(Cl)C(=O)N(C2CCCCC2)C1=O | inactive | 
CN1/C(=C/C=C(/C#N)C(N)=O)C(C)(C)c2ccccc21 | active: 2.59 µM | 
C[C@@H]1CN([C@H](C)CO)C(=O)CCCn2nncc2CO[C@@H]1CN(C)S(=O)(=O)c1ccccc1F | inactive | 
CCSC1=NC2(CCN(C(=O)NC3CCCCC3)CC2)N=C1c1ccc(C)c(C)c1 | inconclusive: 29.1 µM [cytotoxic, single point] | 
COc1ccc(OC)c(NC(=O)CCc2c(C)nc3c(-c4ccccc4)c(C)nn3c2C)c1 | inconclusive: 14.6 µM [cytotoxic, single point] | 
CCc1cccc(NC(=O)c2ccc3c(=O)n4nc(Nc5ccccc5OC)sc4nc3c2)c1 | inconclusive: 2.31 µM [cytotoxic, partial curve, poor fit] | 
CC(=O)Oc1ccc(C(=O)Nc2cccc(C(=O)c3cccc(NC(=O)c4ccc(OC(C)=O)cc4)c3)c2)cc1 | inconclusive: 29.1 µM [cytotoxic, single point] | 
COc1ccc(/C=C2\SC(=N)N(c3nccs3)C2=O)cc1OC | inconclusive: 18.4 µM [cytotoxic, single point] | 
COc1cccc(C(=O)NC(=S)Nc2ccc(Cl)cc2C(=O)O)c1 | inactive | 
COc1cc2[nH]c(=O)n(Cc3ccc(C(=O)NCC4CCCO4)cc3)c(=O)c2cc1OC (centres undefined) | inconclusive: 29.1 µM [cytotoxic, single point] | 
Cc1ccc(S(=O)(=O)c2cn(CC(=O)Nc3ccc4c(c3)OCO4)c3ccc(F)cc3c2=O)cc1 | inconclusive: 0.0146 µM [cytotoxic, full curve] | 
Cc1cc(C)nc(NS(=O)(=O)c2ccc(NC(=S)NC(=O)C3CCCC3)cc2)n1 | inconclusive: 25.9 µM [cytotoxic, single point] | 
COc1ccc(C)cc1NC(=O)c1ccccc1NS(=O)(=O)c1ccc(Cl)s1 | active: 5.17 µM | 
CCOc1ccc(C2NC(=O)NC(C)=C2[N+](=O)[O-])cc1OC (centres undefined) | inactive | 
COC(=O)c1sc2ccccc2c1-n1cccc1C(=O)C(=O)Nc1ccccc1 | inconclusive: 32.6 µM [cytotoxic, single point] | 
COc1ccc(C2C(C#N)=C(N)Nc3onc(C(C)(C)C)c32)c(OC)c1 (centres undefined) | inconclusive: 29.1 µM [cytotoxic, single point] | 
O=C(N/N=C/c1cccs1)c1cc(-c2cccc3ccccc23)n[nH]1 | inconclusive: 29.1 µM [cytotoxic, single point] | 
CC1CCc2cccc3c2N1c1cc(C#N)c(C#N)cc1O3 (centres undefined) | active: 7.31 µM | 

Quoted from the listing:
Potency, `Cc1cc(C)nc(NS(=O)(=O)c2ccc(NC(=S)NC(=O)C3CCCC3)cc2)n1` reads inconclusive: 25.9 µM [cytotoxic, single point]
Potency, `CC1CCc2cccc3c2N1c1cc(C#N)c(C#N)cc1O3` (centres undefined) reads active: 7.31 µM
